# In patent US10407445B2, “Hepatitis C virus inhibitors” (ENANTA PHARMACEUTICALS, INC., priority 2013, dated 2019):
# At least one structure is not confirmed: it was looked up by name or label, or the drawing left a doubt.
# What was measured:
# [1] = test system: HCV genotype 1b replicon Huh7-lunet cells; assay: Resistance barrier analysis in HCV genotype 1b replicon cells (crystal violet staining); format: cell-based, Hepatitis C virus
# Procedure: Stable HCV genotype 1b replicon Huh7-lunet cells were plated in 100 mm cell culture dishes (1.5×10^5 and 3×10^5 cells/dish for DMSO control and compound treated cells, respectively) and incubated for 24 hr (37° C., 5% CO2) prior to compound addition. Compounds (solubilized in DMSO) were prepared in complete media (0.5% DMSO final) and added to cells. Cells were maintained in the presence of compound (or DMSO) and G418 (500 μg/mL) for 3 weeks with media replacement two times per week. Cells were then fixed (4% paraformaldehyde, 30 min at room temperature) and stained (0.5% crystal violet/25% methanol, 20 min room temperature) to allow visualization of surviving cells. Plates were then washed with water to remove excess stain and left to air dry overnight prior to imaging (BioRad Gel Doc XR+Molecular Imager).
# FIG. 1 illustrates comparison of a compound of the invention to daclatasvir in a test that provides a qualitative indication of the occurrence of resistance. […] The control plate, with DMSO alone (no compound 16 or daclatasvir), is almost completely opaque.
# [2] = test system: genotype 1b subgenomic replicons, NS5A Tyr93 mutation; conditions: cited from earlier work
# GT1a = conditions: reported by M. Gao et al., 46th EASL Congress; read-out: EC50 against GT1a; cited from earlier work
# [3] = test system: genotype 1a subgenomic replicons, NS5A Tyr93 mutation; conditions: cited from earlier work
# GT 2a-J6 = conditions: reported by M. Gao et al., 46th EASL Congress; read-out: EC50 against GT 2a-J6; cited from earlier work
compound,measurement,setting,value
"COC(=O)N[C@H](C(=O)N1CCC[C@H]1c1nc(-c2ccc(-c3ccc(-c4c[nH]c([C@@H]5CCCN5C(=O)[C@@H](NC(=O)OC)C(C)C)n4)cc3)cc2)c[nH]1)C(C)C [Daclatasvir, reference compound]",surviving replicon cells (crystal violet staining),"[1]; 2×EC50, 3 weeks in the presence of G418","reduced replicon survival, but many resistant cell colonies survive"
same,surviving replicon cells (crystal violet staining),"[1]; 10×EC50, 3 weeks in the presence of G418","reduced replicon survival, but many resistant cell colonies survive"
same,surviving replicon cells (crystal violet staining),"[1]; 100×EC50, 3 weeks in the presence of G418",largely eliminate replicon cells
same,reduction of drug sensitivity by mutations at Tyr93,[2],~20 fold
same,EC50,GT1a,0.008 nM
same,reduction of drug sensitivity by mutations at Tyr93,[3],"~1,800 fold"
same,EC50,GT 2a-J6,7.2 nM
